Results taken from PubChem BioAssay AID248 (DTP/NCI, 2004).
The list shows only some results of the screen, not a fair sample: it gathers tests that were run many times, whatever their T/C, doses with no T/C, and many T/C values between a quarter and a half above the control. Further doses and runs are listed elsewhere. T/C: endpoint of the treated group in % of that of the vehicle group. Some entries give survivors of the animals treated and no T/C: the source files T/C as zero there, which appears to mark a toxic dose or a test without result, not a measured value. Some survivor counts are full or nearly so, which does not show that the dose was tolerated: survival well below the control is almost never listed, so the zero probably covers shortened survival too. Survivors were counted at the toxicity check, usually on the fifth day, unless a day is given; later deaths do not show. Schedule codes are those of the source, taken here to give the interval after Q, in days (D) or hours (H), and the number of doses after X. Some doses were run more than once; the results are listed from low to high. Some schedule codes hold Z or #, which are not explained here. Some molecules as drawn cover several salts, stereoisomers or complexes of the source; a dose is that of the sample tested. For survival time, this PubChem deposit counts one and a half times the control or more as active, and values a quarter to a half above the control carry no call in these data; other NCI protocols may use other cut-offs.

System: L1210 leukemia ip in BDF1 mice, survival T/C
Experiment: NCI In Vivo Anticancer Drug Screen. Data for tumor model L1210 Leukemia (intraperitoneal) in B6D2F1 (BDF1) mice
Settings: T/C endpoint: mean survival time, higher T/C = longer survival
[1] = dose: 100.0 mg/kg/injection, schedule: Q04DX002 (ip), vehicle: saline with Tween-80
[2] = dose: 200.0 mg/kg/injection, schedule: Q04DX002 (ip), vehicle: saline with Tween-80
[3] = dose: 400.0 mg/kg/injection, schedule: Q04DX002 (ip), vehicle: saline with Tween-80
[4] = dose: 400.0 mg/kg/injection, schedule: Q04DX003 (ip), vehicle: saline
[5] = dose: 400.0 mg/kg/injection, schedule: Q04DX002 (ip), vehicle: Klucel (hydroxypropylcellulose) (HPC)
[6] = dose: 400.0 mg/kg/injection, schedule: Q01DX001 (ip), vehicle: saline
[7] = dose: 400.0 mg/kg/injection, schedule: Q01DX001 (ip), vehicle: carboxymethylcellulose (CMC)
[8] = dose: 400.0 mg/kg/injection, schedule: Q04DX003 (ip), vehicle: saline with Tween-80
[9] = dose: 75.0 mg/kg/injection, schedule: Q01DX001 (ip), vehicle: saline
[10] = dose: 300.0 mg/kg/injection, schedule: Q01DX001 (ip), vehicle: saline
[11] = dose: 400.0 mg/kg/injection, schedule: Q01DX009 (ip), vehicle: saline with Tween-80
[12] = dose: 300.0 mg/kg/injection, schedule: Q01DX001 (ip), vehicle: other
[13] = dose: 200.0 mg/kg/injection, schedule: Q01DX001 (ip), vehicle: Klucel (hydroxypropylcellulose) (HPC)
[14] = dose: 400.0 mg/kg/injection, schedule: Q01DX001 (ip), vehicle: Klucel (hydroxypropylcellulose) (HPC)

## CC(=O)Nc1ccccc1.[Hg]
dose: 6.25 mg/kg/injection, schedule: Q01DX009 (ip), vehicle: saline with Tween-80
  survivor count: 3 of 6
[1]
  survivor count: 0 of 3
[2]
  survivor count: 0 of 3
[3]
  survivor count: 0 of 3

## CCOC(=O)NCc1cnccn1
[4]
  T/C: 132 % of control

## CCCCCCCCCCCCCCCCCC(=O)[O][Pb]([CH3])([CH3])[CH3]
dose: 50.0 mg/kg/injection, schedule: Q04DX002 (ip), vehicle: Klucel (hydroxypropylcellulose) (HPC)
  survivor count: 0 of 3
dose: 100.0 mg/kg/injection, schedule: Q04DX002 (ip), vehicle: Klucel (hydroxypropylcellulose) (HPC)
  survivor count: 0 of 3 and 1 of 3
dose: 200.0 mg/kg/injection, schedule: Q04DX002 (ip), vehicle: Klucel (hydroxypropylcellulose) (HPC)
  survivor count: 0 of 3
[5]
  survivor count: 0 of 3

## CCCCC1(CC)C(=O)NC(=S)NC1=O
[6]
  survivor count: 0 of 6

## CC(=O)N(c1ccccc1)c1ccc([N+](=O)[O-])cc1[N+](=O)[O-]
[7]
  T/C: 132 % of control

## Clc1ccc2c(CBr)ccnc2c1
[6]
  survivor count: 0 of 6

## CC(O)CN1CCCCC1 (stereo not drawn)
dose: 400.0 mg/kg/injection, schedule: Q01DX001 (ip), vehicle: other
  survivor count: 2 of 4
[8]
  survivor count: 0 of 3

## CCCCCCC[CH2][Sn]([CH2]CCCCCCC)([NH]S(=O)(=O)c1ccc(C)cc1)[NH]S(=O)(=O)c1ccc(C)cc1
dose: 75.0 mg/kg/injection, schedule: Q01DX009 (ip), vehicle: saline sonified
  survivor count: 1 of 6
dose: 150.0 mg/kg/injection, schedule: Q04DX003 (ip), vehicle: Klucel (hydroxypropylcellulose) (HPC)
  survivor count: 2 of 6
dose: 300.0 mg/kg/injection, schedule: Q04DX003 (ip), vehicle: Klucel (hydroxypropylcellulose) (HPC)
  survivor count: 1 of 6

## O=C1C[C@@H]2OCC=C3C[N+]4([O-])CC[C@]56c7ccccc7N1[C@H]5[C@H]2[C@H]3C[C@@H]64 (stereo partly drawn)
[9]
  survivor count: 3 of 6
[10]
  survivor count: 0 of 6

## COc1c2c(c(OC)c3ccccc13)C(=O)c1ccccc1C2=O
dose: 400.0 mg/kg/injection, schedule: Q01DX005 (ip), vehicle: saline
  survivor count: 2 of 4

## CCCCCCCC/C=C/CCCCCCCCNC(=O)NCCCl
[11]
  survivor count: 6 of 6

## N#CC1=C(N)CCC(C#N)(c2ccccc2)C1 (stereo not drawn)
[11]
  survivor count: 1 of 6

## NCCSc1ccc(Br)cc1
[12]
  survivor count: 3 of 6

## [Br][Hg][Br].c1ccc(N=P(c2ccccc2)(c2ccccc2)c2ccccc2)cc1
dose: 75.0 mg/kg/injection, schedule: Q01DX001 (ip), vehicle: other
  survivor count: 4 of 6
dose: 150.0 mg/kg/injection, schedule: Q01DX001 (ip), vehicle: other
  survivor count: 1 of 6
[12]
  survivor count: 0 of 6

## CCCCCCCCCCCCCCP(I)(N(C)C)(N(C)C)N(C)C
dose: 6.25 mg/kg/injection, schedule: Q04DX002 (ip), vehicle: saline
  survivor count: 3 of 3
dose: 12.5 mg/kg/injection, schedule: Q04DX002 (ip), vehicle: saline
  survivor count: 0 of 3
dose: 25.0 mg/kg/injection, schedule: Q04DX002 (ip), vehicle: saline
  survivor count: 0 of 3
dose: 100.0 mg/kg/injection, schedule: Q04DX002 (ip), vehicle: saline
  survivor count: 0 of 3
dose: 200.0 mg/kg/injection, schedule: Q04DX002 (ip), vehicle: saline
  survivor count: 0 of 3
dose: 400.0 mg/kg/injection, schedule: Q04DX002 (ip), vehicle: saline
  survivor count: 0 of 3

## CC12CCCCC1CC(=O)/C(=C\O)C2 (stereo not drawn)
dose: 100.0 mg/kg/injection, schedule: Q04DX002 (ip), vehicle: DMSO
  survivor count: 2 of 3

## Nc1[nH]c(=S)[nH]c(=S)c1N
dose: 250.0 mg/kg/injection, schedule: Q01DX Z (ip), vehicle: methylcellulose (MC)
  survivor count: 2 of 6
dose: 500.0 mg/kg/injection, schedule: Q01DX Z (ip), vehicle: methylcellulose (MC)
  survivor count: 0 of 6

## NC(=S)N/N=C/c1ccc(Br)s1
[7]
  survivor count: 1 of 4

## CN(C)CC(=O)N/N=C\c1ccc([N+](=O)[O-])s1
[4]
  survivor count: 1 of 6

## [Cu+2].[NH-]c1ccccc1C(=O)O.[NH-]c1ccccc1C(=O)O
dose: 100.0 mg/kg/injection, schedule: Q04DX003 (ip), vehicle: saline with Tween-80
  survivor count: 3 of 6
dose: 200.0 mg/kg/injection, schedule: Q04DX003 (ip), vehicle: saline with Tween-80
  survivor count: 1 of 6
[8]
  survivor count: 0 of 6

## Cc1cn(O)c2nc(N)nc(=O)c-2n1
[13]
  survivor count: 1 of 3
[14]
  survivor count: 1 of 3

## CN(C)CCc1ccc2cc3ccc(CCN(C)C)cc3nc2c1
[1]
  survivor count: 1 of 3
[2]
  survivor count: 1 of 3
[3]
  survivor count: 1 of 3

## COc1ccc(OC)c(/C=C(/C)[N+](=O)[O-])c1
dose: 400.0 mg/kg/injection, schedule: Q04DX003 (ip), vehicle: Klucel (hydroxypropylcellulose) (HPC)
  survivor count: 1 of 6

## O=C(C[n+]1ccccc1CO)c1ccc(-c2ccc(C(=O)C[n+]3ccccc3CO)cc2)cc1
[9]
  survivor count: 0 of 6
dose: 150.0 mg/kg/injection, schedule: Q01DX001 (ip), vehicle: saline
  survivor count: 0 of 6
[10]
  survivor count: 0 of 6

## CCNCCC#N
dose: 400.0 mg/kg/injection, schedule: Q01DX009 (ip), vehicle: saline
  survivor count: 5 of 6

## O=C(CCN1CC=C(c2ccccc2)CC1)c1ccc(F)cc1
[13]
  survivor count: 3 of 6

## COC(=O)C(c1ccccc1)C1(O)CCN(CC2COc3ccccc3O2)CC1 (stereo not drawn)
[13]
  survivor count: 3 of 6
[14]
  survivor count: 0 of 6

## CCN(CC)CCOc1ccccc1Br
dose: 100.0 mg/kg/injection, schedule: Q01DX009 (ip), vehicle: saline
  survivor count: 3 of 6
dose: 200.0 mg/kg/injection, schedule: Q04DX003 (ip), vehicle: saline
  survivor count: 2 of 6
[4]
  survivor count: 0 of 6

## CC1CC(=O)NN1C(O)c1ccc2c(c1)OCO2 (stereo not drawn)
[5]
  survivor count: 3 of 3

## CC(C)(CC(=O)O)CC(=O)OCC(=O)[C@@]1(O)CC[C@H]2[C@@H]3CCC4=CC(=O)C=C[C@]4(C)[C@H]3[C@@H](O)C[C@@]21C
dose: 100.0 mg/kg/injection, schedule: Q01DX009 (sc), vehicle: steroid suspending solution
  T/C: 136 % of control
